Measurements reported in patent US20230079757A1, “METHODS AND MATERIALS FOR TREATING CANCER” (Mayo Foundation for Medical Education and Research, priority 2020, published 2023).
No constants are given. Whether binding was seen depends on the method and setting. In cells and extracts the contact can be indirect. Some results given as binding are weak or reduced against the parent protein; the word gives no strength.

T1: FOXA1 forkhead domain-containing region (FKCR, a.a. 141-294) (UniProt P55317)
T1 sequence (looked up): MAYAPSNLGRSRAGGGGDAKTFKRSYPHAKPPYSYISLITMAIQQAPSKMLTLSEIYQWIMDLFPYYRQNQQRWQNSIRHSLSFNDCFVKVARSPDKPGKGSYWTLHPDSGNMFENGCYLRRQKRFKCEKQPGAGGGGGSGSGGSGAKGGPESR

T2: GST-tagged STAT2 DNA binding domain (a.a. 312-486) (UniProt P52630 312-486)
T2 construct: range 312-486; also called STAT2-DBD; STAT2 DBD; not shown: GST tag
T2 sequence (looked up): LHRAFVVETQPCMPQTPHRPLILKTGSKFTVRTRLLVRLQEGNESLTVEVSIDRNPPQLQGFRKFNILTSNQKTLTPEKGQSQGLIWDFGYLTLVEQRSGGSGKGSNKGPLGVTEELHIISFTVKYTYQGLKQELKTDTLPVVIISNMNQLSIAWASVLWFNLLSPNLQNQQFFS

B1: FOXA1-N216A/H220A/N225A (protein, UniProt P55317 1-472, looked up)
chain: MLGTVKMEGHETSDWNSYYADTQEAYSSVPVSNMNSGLGSMNSMNTYMTMNTMTTSGNMTPASFNMSYANPGLGAGLSPGAVAGMPGGSAGAMNSMTAAGVTAMGTALSPSGMGAMGAQQAASMNGLGPYAAAMNPCMSPMAYAPSNLGRSRAGGGGDAKTFKRSYPHAKPPYSYISLITMAIQQAPSKMLTLSEIYQWIMDLFPYYRQNQQRWQASIRASLSFADCFVKVARSPDKPGKGSYWTLHPDSGNMFENGCYLRRQKRFKCEKQPGAGGGGGSGSGGSGAKGGPESRKDPSGASNPSADSPLHRGVHGKTGQLEGAPAPGPAASPQTLDHSGATATGGASELKTPASSTAPPISSGPGALASVPASHPAHGLAPHESQLHLKGDPHYSFNHPFSINNLMSSSEQQHKLDFKAYEQALQYSPYGSTLPASLPLGSASVTTRSPIEPSALEPAYYQGVYSRPVLNTS

Assays:
[1] = target: T1, FOXA1 forkhead domain-containing region (FKCR, a.a. 141-294); experiment: GST pulldown, GST-STAT2 fragment on beads with 293T lysate (FIG. 9E)
[2] = target: T2, GST-tagged STAT2 DNA binding domain …; experiment: GST pulldown (FIG. 8D)

Molecule	binding [1]	binding [2]
GST-tagged STAT2 DNA binding domain (a.a. 312-486) (from UniProt P52630 312-486)	binds	
B1		binds
